Assay results as given in article PMC7797039.

Chains of the proteins cited; added tags and fusions are not shown.
UniProt P09874, whole entry: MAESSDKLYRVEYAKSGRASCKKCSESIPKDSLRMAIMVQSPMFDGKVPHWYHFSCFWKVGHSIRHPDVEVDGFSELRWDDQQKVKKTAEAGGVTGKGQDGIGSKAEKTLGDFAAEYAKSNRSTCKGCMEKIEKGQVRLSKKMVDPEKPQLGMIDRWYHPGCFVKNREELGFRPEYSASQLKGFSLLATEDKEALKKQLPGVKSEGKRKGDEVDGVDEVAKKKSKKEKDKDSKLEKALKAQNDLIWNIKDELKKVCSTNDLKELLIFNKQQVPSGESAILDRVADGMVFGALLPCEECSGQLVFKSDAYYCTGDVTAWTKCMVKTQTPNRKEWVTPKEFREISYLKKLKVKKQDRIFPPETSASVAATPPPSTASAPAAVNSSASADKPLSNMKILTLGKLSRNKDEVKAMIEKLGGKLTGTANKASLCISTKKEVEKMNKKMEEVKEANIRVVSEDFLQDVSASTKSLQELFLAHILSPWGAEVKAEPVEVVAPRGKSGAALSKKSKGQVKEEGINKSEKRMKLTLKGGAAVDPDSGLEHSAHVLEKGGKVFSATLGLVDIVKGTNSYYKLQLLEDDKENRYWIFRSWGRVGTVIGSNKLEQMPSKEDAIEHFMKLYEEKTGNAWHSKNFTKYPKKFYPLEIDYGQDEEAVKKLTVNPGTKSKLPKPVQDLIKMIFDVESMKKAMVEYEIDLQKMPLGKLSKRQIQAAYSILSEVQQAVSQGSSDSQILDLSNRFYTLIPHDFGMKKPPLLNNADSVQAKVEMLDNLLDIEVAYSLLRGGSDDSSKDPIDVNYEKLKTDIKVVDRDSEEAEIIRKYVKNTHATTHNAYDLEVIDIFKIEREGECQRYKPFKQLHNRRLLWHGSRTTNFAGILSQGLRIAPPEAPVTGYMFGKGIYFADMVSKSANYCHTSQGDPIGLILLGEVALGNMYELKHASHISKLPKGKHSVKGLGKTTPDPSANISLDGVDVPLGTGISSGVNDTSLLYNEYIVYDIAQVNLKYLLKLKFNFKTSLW

Molecular target: PARP-1 (Homo sapiens) (UniProt P09874)
Experiment: fluorescence anisotropy
Settings: 140 mM KCl, 25 mM HEPES pH 8.0, 140 mM KCl, 8 mM MgCl2, 50 ug/ml BSA, 0.02 mM TCEP, 4% glycerol, 11.4 mM bME, 5 nM labeled DNA, 30 min room temperature, read at 25 C, recombinant protein, residues 1-1014, protein details: His-tag (pET28a)
[1] = 8 mM MgCl2, Kd in figure only, folded or branched DNA

Sequence	binding result [1]	other results
AGGGTTAGGGTTAGGGTTAGGG [hTEL G4DNA]	–	binding result (8 mM MgCl2, little or no binding, folded or branched DNA): no binding
GGGCGCGAGGGCGGGAGGGGAGG [c-KIT L2-L1]	binds	–
GGGCGGGAAAAAGGGAGGGGAGG [c-KIT L2 5-ade]	binds	–
GGGCGGGAGGGCGCGAGGGGAGG [c-KIT L2-L3]	binds	–
GGGCGGGTTTTTGGGAGGGGAGG [c-KIT L2 5-thy]	binds	–
TTTTTTTTTTTTTTTTTTTT [T20]	–	binding result (8 mM MgCl2, little or no binding, single-stranded DNA): no binding

No signal at the amounts used counts as a negative. Construct, isoform or probe ends are uncertain for at least one entry. At least one verdict was read from the data and is not stated in words by the source.
